From patent publication US10154957B2, “Microneedle device having a peptide therapeutic agent and an amino acid and methods of making and using the same” (3M INNOVATIVE PROPERTIES COMPANY, priority 2011, dated 2018)
This continues a long series; more values of the same kind are listed elsewhere. Marks after values point to notes of the source that are not given here.

Assay: Percent purity of PTHrP analogue in coating with varying His-HCl concentration, three storage conditions (HPLC)
Format: physicochemical
Conditions: peptide 10 mg/mL in PBS
Method: The protein or polypeptide content in the formulation coated on the microneedle arrays was determined using an Agilent 1100 HPLC system (Agilent Technologies, Wilmington, Del.) equipped with a binary pump, well-plated thermostated autosampler, thermostated column compartment, and a diode array UV detector. A Zorbax 300SB-C8 column (Agilent Technologies, Wilmington, Del.) having a 5 μm particle size and 2.1×150 mm inner diameter was used for the separations. The column was maintained at 50° C. The mobile phase consisted of two eluents. Eluent A was 0.1% TFA (trifluoroacetic acid) in water and eluent B was 0.1% TFA in acetonitrile (Spectrum Chemical, New Brunswick, N.J.). A linear gradient from 80/20 to 50/50 (A/B) was applied over 30 minutes. The flow rate was 0.4 mL/minute and the UV detection wavelength was set at 214 nm. The total run time was 34 minutes and the sample injection volume was 15 μL.
Five sample formulations were prepared containing 10 mg/mL of [Glu^22,25,Leu^23,28,31,Aib^29,Lys^26,30]hPTHrP(1-34)NH2 and varying concentrations of L-histidine monohydrochloride (His-HCl) in PBS. The concentrations of His-HCl in the sample formulations range from 1 mg/mL to 10 mg/mL. A control formulation was also prepared containing 10 mg/mL of [Glu^22,25,Leu^23,28,31,Aib^29,Lys^26,30]hPTHrP(1-34)NH2 in PBS. […] Microneedle arrays were coated with either the sample or the control formulations. The coating was applied by dropwise addition of 40 μL of the formulation to the portion of the array defined by the octagon shaped pattern of microneedles. The flood coated arrays (both sample and control formulation coated) were dried in an oven at 35° C. for 1.5 hours followed by 30° C. for 15 hours.
After drying, the coated arrays were placed in a storage chamber that was maintained at one of three storage conditions: 40° C./96% RH (storage condition A); 25° C./60% RH (storage condition B); or 5° C./ambient RH. The [Glu^22,25,Leu^23,28,31,Aib^29,Lys^26,30]hPTHrP(1-34)NH2 content of the coated arrays was determined following storage in a chamber for 1 day, 3 days, 7 days, 14 days, 21 days, 28 days, and 2 months. The initial [Glu^22,25,Leu^23,28,31,Aib^29,Lys^26,30]hPTHrP(1-34)NH2 content was also determined using freshly coated arrays (both sample and control formulation coated). The arrays used to determine initial content were stored in a refrigerator at about 4° C. and analyzed within one day of being prepared. At the designated time point, an array was taken from the chamber and washed with PBS (3.5 mL) to remove the coating from the array. An aliquot of the resulting wash solution was analyzed for [Glu^22,25,Leu^23,28,31,Aib^29,Lys^26,30]hPTHrP(1-34)NH2 content using the HPLC method described above. The results were quantified against an external standard of [Glu^22,25,Leu^23,28,31,Aib^29,Lys^26,30]hPTHrP(1-34)NH2. At each time point, the percent purity of [Glu^22,25,Leu^23,28,31,Aib^29,Lys^26,30]hPTHrP(1-34)NH2 in the coating was determined by measuring the peak area for [Glu^22,25,Leu^23,28,31,Aib^29,Lys^26,30]hPTHrP(1-34)NH2 in the selected coating and dividing it by the total peak area measured for all [Glu^22,25,Leu^23,28,31,Aib^29,Lys^26,30]hPTHrP(1-34)NH2 related peaks.

Percent Purity of [Glu^22,25, Leu^23,28,31, Aib^29, Lys^26,30]hPTHrP(1-34)NH2 (Histidine-HCl 1 mg/mL, Storage Condition A (40° C./96% RH), Day 1): 97.7% | Percent Purity of [Glu^22,25, Leu^23,28,31, Aib^29, Lys^26,30]hPTHrP(1-34)NH2 (Histidine-HCl 1 mg/mL, Storage Condition A (40° C./96% RH), Day 3): 55.7% | Percent Purity of [Glu^22,25, Leu^23,28,31, Aib^29, Lys^26,30]hPTHrP(1-34)NH2 (Histidine-HCl 1 mg/mL, Storage Condition A (40° C./96% RH), Day 7): 18.6% | Percent Purity of [Glu^22,25, Leu^23,28,31, Aib^29, Lys^26,30]hPTHrP(1-34)NH2 (Histidine-HCl 1 mg/mL, Storage Condition A (40° C./96% RH), Day 14, the sample for analysis contained insoluble impurities): 29.1^(a) percent | Percent Purity of [Glu^22,25, Leu^23,28,31, Aib^29, Lys^26,30]hPTHrP(1-34)NH2 (Histidine-HCl 1 mg/mL, Storage Condition A (40° C./96% RH), Day 21, the sample for analysis contained insoluble impurities): 0^(a) percent | Percent Purity of [Glu^22,25, Leu^23,28,31, Aib^29, Lys^26,30]hPTHrP(1-34)NH2 (Histidine-HCl 1 mg/mL, Storage Condition A (40° C./96% RH), Initial): 99.0% | Percent Purity of [Glu^22,25, Leu^23,28,31, Aib^29, Lys^26,30]hPTHrP(1-34)NH2 (Histidine-HCl 1 mg/mL, Storage Condition C (5° C./ambient RH), 2 months): 98.2% | Percent Purity of [Glu^22,25, Leu^23,28,31, Aib^29, Lys^26,30]hPTHrP(1-34)NH2 (Histidine-HCl 1 mg/mL, Storage Condition C (5° C./ambient RH), Day 7): 98.8% | Percent Purity of [Glu^22,25, Leu^23,28,31, Aib^29, Lys^26,30]hPTHrP(1-34)NH2 (Histidine-HCl 1 mg/mL, Storage Condition C (5° C./ambient RH), Day 14): 98.8% | Percent Purity of [Glu^22,25, Leu^23,28,31, Aib^29, Lys^26,30]hPTHrP(1-34)NH2 (Histidine-HCl 1 mg/mL, Storage Condition C (5° C./ambient RH), Day 28): 98.8% | Percent Purity of [Glu^22,25, Leu^23,28,31, Aib^29, Lys^26,30]hPTHrP(1-34)NH2 (Histidine-HCl 1 mg/mL, Storage Condition C (5° C./ambient RH), Initial): 99.0% | Percent Purity of [Glu^22,25, Leu^23,28,31, Aib^29, Lys^26,30]hPTHrP(1-34)NH2 (Histidine-HCl 2 mg/mL, Storage Condition C (5° C./ambient RH), 2 months): 98.4% | Percent Purity of [Glu^22,25, Leu^23,28,31, Aib^29, Lys^26,30]hPTHrP(1-34)NH2 (Histidine-HCl 2 mg/mL, Storage Condition C (5° C./ambient RH), Day 7): 98.8% | Percent Purity of [Glu^22,25, Leu^23,28,31, Aib^29, Lys^26,30]hPTHrP(1-34)NH2 (Histidine-HCl 2 mg/mL, Storage Condition C (5° C./ambient RH), Day 14): 98.9% | Percent Purity of [Glu^22,25, Leu^23,28,31, Aib^29, Lys^26,30]hPTHrP(1-34)NH2 (Histidine-HCl 2 mg/mL, Storage Condition C (5° C./ambient RH), Day 28): 98.9% | Percent Purity of [Glu^22,25, Leu^23,28,31, Aib^29, Lys^26,30]hPTHrP(1-34)NH2 (Histidine-HCl 2 mg/mL, Storage Condition C (5° C./ambient RH), Initial): 99.0% | Percent Purity of [Glu^22,25, Leu^23,28,31, Aib^29, Lys^26,30]hPTHrP(1-34)NH2 (Histidine-HCl 3.3 mg/mL, Storage Condition C (5° C./ambient RH), 2 months): 98.6% | Percent Purity of [Glu^22,25, Leu^23,28,31, Aib^29, Lys^26,30]hPTHrP(1-34)NH2 (Histidine-HCl 3.3 mg/mL, Storage Condition C (5° C./ambient RH), Day 7): 98.8% | Percent Purity of [Glu^22,25, Leu^23,28,31, Aib^29, Lys^26,30]hPTHrP(1-34)NH2 (Histidine-HCl 3.3 mg/mL, Storage Condition C (5° C./ambient RH), Day 14): 98.9% | Percent Purity of [Glu^22,25, Leu^23,28,31, Aib^29, Lys^26,30]hPTHrP(1-34)NH2 (Histidine-HCl 3.3 mg/mL, Storage Condition C (5° C./ambient RH), Day 28): 98.8% | Percent Purity of [Glu^22,25, Leu^23,28,31, Aib^29, Lys^26,30]hPTHrP(1-34)NH2 (Histidine-HCl 3.3 mg/mL, Storage Condition C (5° C./ambient RH), Initial): 99.3% | Percent Purity of [Glu^22,25, Leu^23,28,31, Aib^29, Lys^26,30]hPTHrP(1-34)NH2 (Histidine-HCl 5 mg/mL, Storage Condition C (5° C./ambient RH), 2 months): 98.6% | Percent Purity of [Glu^22,25, Leu^23,28,31, Aib^29, Lys^26,30]hPTHrP(1-34)NH2 (Histidine-HCl 5 mg/mL, Storage Condition C (5° C./ambient RH), Day 7): 98.9% | Percent Purity of [Glu^22,25, Leu^23,28,31, Aib^29, Lys^26,30]hPTHrP(1-34)NH2 (Histidine-HCl 5 mg/mL, Storage Condition C (5° C./ambient RH), Day 14): 98.9% | Percent Purity of [Glu^22,25, Leu^23,28,31, Aib^29, Lys^26,30]hPTHrP(1-34)NH2 (Histidine-HCl 5 mg/mL, Storage Condition C (5° C./ambient RH), Day 28): 98.8% | Percent Purity of [Glu^22,25, Leu^23,28,31, Aib^29, Lys^26,30]hPTHrP(1-34)NH2 (Histidine-HCl 5 mg/mL, Storage Condition C (5° C./ambient RH), Initial): 99.0% | Percent Purity of [Glu^22,25, Leu^23,28,31, Aib^29, Lys^26,30]hPTHrP(1-34)NH2 (Histidine-HCl 10 mg/mL, Storage Condition B (25° C./60% RH), 2 months): 98.6% | Percent Purity of [Glu^22,25, Leu^23,28,31, Aib^29, Lys^26,30]hPTHrP(1-34)NH2 (Histidine-HCl 10 mg/mL, Storage Condition B (25° C./60% RH), Day 28): 98.9% | Percent Purity of [Glu^22,25, Leu^23,28,31, Aib^29, Lys^26,30]hPTHrP(1-34)NH2 (Histidine-HCl 10 mg/mL, Storage Condition C (5° C./ambient RH), 2 months): 98.7% | Percent Purity of [Glu^22,25, Leu^23,28,31, Aib^29, Lys^26,30]hPTHrP(1-34)NH2 (Histidine-HCl 10 mg/mL, Storage Condition C (5° C./ambient RH), Day 7): 98.9% | Percent Purity of [Glu^22,25, Leu^23,28,31, Aib^29, Lys^26,30]hPTHrP(1-34)NH2 (Histidine-HCl 10 mg/mL, Storage Condition C (5° C./ambient RH), Day 14): 98.9% | Percent Purity of [Glu^22,25, Leu^23,28,31, Aib^29, Lys^26,30]hPTHrP(1-34)NH2 (Histidine-HCl 10 mg/mL, Storage Condition C (5° C./ambient RH), Day 28): 98.9% | Percent Purity of [Glu^22,25, Leu^23,28,31, Aib^29, Lys^26,30]hPTHrP(1-34)NH2 (Histidine-HCl 10 mg/mL, Storage Condition C (5° C./ambient RH), Initial): 99.0% | Percent Purity of [Glu^22,25, Leu^23,28,31, Aib^29, Lys^26,30]hPTHrP(1-34)NH2 (Histidine-HCl None, Storage Condition A (40° C./96% RH), Day 1): 57.5% | Percent Purity of [Glu^22,25, Leu^23,28,31, Aib^29, Lys^26,30]hPTHrP(1-34)NH2 (Histidine-HCl None, Storage Condition A (40° C./96% RH), Day 3): 17.3% | Percent Purity of [Glu^22,25, Leu^23,28,31, Aib^29, Lys^26,30]hPTHrP(1-34)NH2 (Histidine-HCl None, Storage Condition A (40° C./96% RH), Day 7, the sample for analysis contained insoluble impurities): 42.1^(a) percent | Percent Purity of [Glu^22,25, Leu^23,28,31, Aib^29, Lys^26,30]hPTHrP(1-34)NH2 (Histidine-HCl None, Storage Condition A (40° C./96% RH), Day 14, the sample for analysis contained insoluble impurities): 10.6^(a) percent | Percent Purity of [Glu^22,25, Leu^23,28,31, Aib^29, Lys^26,30]hPTHrP(1-34)NH2 (Histidine-HCl None, Storage Condition A (40° C./96% RH), Day 21, the sample for analysis contained insoluble impurities): 0^(a) percent | Percent Purity of [Glu^22,25, Leu^23,28,31, Aib^29, Lys^26,30]hPTHrP(1-34)NH2 (Histidine-HCl None, Storage Condition A (40° C./96% RH), Initial): 98.7% | Percent Purity of [Glu^22,25, Leu^23,28,31, Aib^29, Lys^26,30]hPTHrP(1-34)NH2 (Histidine-HCl none, Storage Condition C (5° C./ambient RH), 2 months): 97.3% | Percent Purity of [Glu^22,25, Leu^23,28,31, Aib^29, Lys^26,30]hPTHrP(1-34)NH2 (Histidine-HCl none, Storage Condition C (5° C./ambient RH), Day 7): 98.0% | Percent Purity of [Glu^22,25, Leu^23,28,31, Aib^29, Lys^26,30]hPTHrP(1-34)NH2 (Histidine-HCl none, Storage Condition C (5° C./ambient RH), Day 14): 98.4% | Percent Purity of [Glu^22,25, Leu^23,28,31, Aib^29, Lys^26,30]hPTHrP(1-34)NH2 (Histidine-HCl none, Storage Condition C (5° C./ambient RH), Day 28): 97.6% | Percent Purity of [Glu^22,25, Leu^23,28,31, Aib^29, Lys^26,30]hPTHrP(1-34)NH2 (Histidine-HCl none, Storage Condition C (5° C./ambient RH), Initial): 98.7%
Substance: [Glu^22,25,Leu^23,28,31,Aib^29,Lys^26,30]hPTHrP(1-34)NH2
